The values below come from article PMC10341573, “Design, Synthesis, and Biological Evaluation of Novel Quinazolin-4(3H)-One-Based Histone Deacetylase 6 (HDAC6) Inhibitors for Anticancer Activity” (International Journal of Molecular Sciences, 2023).

Structures are written as SMILES.

For one assay, the system named is HCT116. Put plainly: MTT cell proliferation assay, HCT116. It is filed as cell-based. The following applies: Homo sapiens, HCT-116, 72 h, read-out: IC50 ± SD HCT116. As for the experimental part:
(§1) For cell viability and proliferation, the MTT assay was performed. […] This was followed by cell viability analysis using MTT according to the manufacturer’s instructions. Briefly, 10 μL of MTT solution was added to each well and incubated for 1–4 h at 37 °C. The formazan crystals formed were dissolved in 200 μL of solubilization solution (DMSO), and absorbance was recorded at 570 nm.

In the next assay the test system is MCF7. As to the kind of experiment: MTT cell proliferation assay, MCF7. The following applies: Homo sapiens, MCF7, 72 h, read-out: IC50 ± SD MCF7. It counts as cell-based. As for the experimental part:
as §1

In the next assay the test system is B16. Put plainly: MTT cell proliferation assay, B16. It is filed as cell-based, murine. The following applies: Mus musculus, B16, 72 h, read-out: IC50 ± SD B16. Here is the method: as §1
The next assay deals with HEK 293. Put plainly: MTT cell proliferation assay, HEK 293. It is filed as cell-based. The conditions noted are these: Homo sapiens, HEK293, 72 h, read-out: IC50 ± SD HEK 293. Here is the method:
as §1

With `O=C(CCCCCCC(=O)Nc1ccccc1)NO` [SAHA, suberoylanilidehydroxamic acid, reference compound], the IC50 was 7.99 ± 1.68 µM in the assay with HCT116, 44.4 ± 8.3 µM in the assay with MCF7, 32.9 ± 18 µM with B16 and 11.9 ± 3.42 µM with HEK 293.
